Results are given in words; binding and its absence hold for the method and conditions named. In cells and extracts the contact can be indirect. Some results given as binding are weak or reduced against the parent protein; the word gives no strength.
Biological target: p53 (mouse (endogenous in mouse spleen)) (UniProt P02340)
Assay: co-IP; 1 mg of spleen lysate (NP-40 buffer) of wild type, 2MX-S and 8MX-S mice precipitated with anti-p53 antibody (CM5), blotted with anti-Mdm4 (MX-82) or anti-p53 (FL393); 10% of lysate as input

Chains of the proteins cited; added tags and fusions are not shown.
UniProt P02340: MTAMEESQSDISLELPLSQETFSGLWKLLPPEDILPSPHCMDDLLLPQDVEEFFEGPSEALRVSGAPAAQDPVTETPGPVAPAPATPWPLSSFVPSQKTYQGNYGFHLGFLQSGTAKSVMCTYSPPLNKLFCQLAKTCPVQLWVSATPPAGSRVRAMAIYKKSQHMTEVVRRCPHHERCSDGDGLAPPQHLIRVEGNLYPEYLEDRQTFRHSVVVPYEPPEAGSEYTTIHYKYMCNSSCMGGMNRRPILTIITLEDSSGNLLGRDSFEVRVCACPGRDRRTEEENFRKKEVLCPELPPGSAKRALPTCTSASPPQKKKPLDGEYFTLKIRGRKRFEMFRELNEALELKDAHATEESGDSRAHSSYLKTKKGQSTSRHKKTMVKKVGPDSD

binding: binds
B1: Mdm4 (protein, UniProt O35618 1-489)
chain: MTSHSTSAQCSASDSACRISSEQISQVRPKLQLLKILHAAGAQGEVFTMKEVMHYLGQYIMVKQLYDQQEQHMVYCGGDLLGDLLGCQSFSVKDPSPLYDMLRKNLVTSASINTDAAQTLALAQDHTMDFPSQDRLKHGATEYSNPRKRTEEEDTHTLPTSRHKCRDSRADEDLIEHLSQDETSRLDLDFEEWDVAGLPWWFLGNLRNNCIPKSNGSTDLQTNQDIGTAIVSDTTDDLWFLNETVSEQLGVGIKVEAANSEQTSEVGKTSNKKTVEVGKDDDLEDSRSLSDDTDVELTSEDEWQCTECKKFNSPSKRYCFRCWALRKDWYSDCSKLTHSLSTSNITAIPEKKDNEGIDVPDCRRTISAPVVRPKDGYLKEEKPRFDPCNSVGFLDLAHSSESQEIISSAREQTDIFSEQKAETESMEDFQNVLKPCSLCEKRPRDGNIIHGKTSHLTTCFHCARRLKKSGASCPACKKEIQLVIKVFIA
